{"sequences": {"note": "The chains behind the UniProt entries cited, without tags or fusion partners. Where a name states a change or a piece, a line headed by the entry shows the natural chain unless it says otherwise. Residues count along the entry.", "UniProt P17936, residues 28-291": "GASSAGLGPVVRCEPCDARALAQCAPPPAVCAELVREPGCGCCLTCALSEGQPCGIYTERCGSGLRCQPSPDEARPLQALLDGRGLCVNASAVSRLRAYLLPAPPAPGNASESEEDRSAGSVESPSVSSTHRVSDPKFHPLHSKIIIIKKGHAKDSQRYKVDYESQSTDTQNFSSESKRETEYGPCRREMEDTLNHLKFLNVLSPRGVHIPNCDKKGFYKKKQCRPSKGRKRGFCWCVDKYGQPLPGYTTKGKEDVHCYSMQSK", "UniProt P01344": "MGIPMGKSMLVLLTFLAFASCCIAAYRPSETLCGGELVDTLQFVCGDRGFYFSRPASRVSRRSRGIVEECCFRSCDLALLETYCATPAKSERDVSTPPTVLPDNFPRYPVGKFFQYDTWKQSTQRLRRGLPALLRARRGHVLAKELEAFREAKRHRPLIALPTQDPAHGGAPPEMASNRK", "UniProt P05019": "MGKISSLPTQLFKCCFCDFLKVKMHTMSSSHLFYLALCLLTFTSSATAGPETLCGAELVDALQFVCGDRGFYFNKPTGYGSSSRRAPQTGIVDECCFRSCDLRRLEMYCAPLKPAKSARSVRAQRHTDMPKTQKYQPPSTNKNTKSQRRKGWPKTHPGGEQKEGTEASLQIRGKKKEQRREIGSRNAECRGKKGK"}, "source": "patent US20070196376A1", "binders": {"B1": {"name": "mAb 7.159.2 (antibody, V domains shown)", "VH": "QVQLVQSGAEVKKPGASVKVSCKASGYTFTSYDINWVRQATGQGLEWMGWMNPNSGNTGYAQKFQGRVTMTRNTSISTAYMELSSLRSEDTAVYYCARDPYYYYYGMDVWGQGTTVTVSS", "VL": "QSVLTQPPSVSAAPGQKVTISCSGSSSNIENNHVSWYQQLPGTAPKLLIYDNNKRPSGIPDRFSGSKSGTSATLGITGLQTGDEADYYCETWDTSLSAGRVFGGGTKLTVLG"}, "B2": {"name": "mAb 7.34.1 (antibody, V domains shown)", "VH": "QVQLQESGPGLVKPSETLSLTCTVSGGSISSYYWSWIRQPPGRGLEWIGYFFYSGYTNYNPSLKSRVTMSVDTSKNQFSLKLSSVTAADTAVYYCACITGTTKGGMDVWGQGATVTVSS", "VL": "QSVLTQAPSVSGAPGQRVTISCTGRSSNIGAGYDVHWYQQFPGTAPKLLIYGNSNRPSGVPDRFSGSKSGTSASLAITGLQAEDEADYYCQSYDSSLSGSVFGGGTKLTVLG"}, "B3": {"name": "mAb 7.251.3 (antibody, V domains shown)", "VH": "B2 VH with R43K, M69I, A113T", "VL": "B2 VL with A7P, R25S, F41L, S54N, E83D, Y93F"}}, "note": "Where a chain is given by its changes, count along the chain named. These are yes or no findings as the source states them, for the method shown. Some binding calls cover weakened binding; strength is not graded here.", "data": [{"biological_target": "IGF-binding protein 3 (IGFBP-3) (UniProt P17936)", "test": "Biacore, mAb immobilised on CM5, analyte flowed; grade relative to IGF binding", "values": [{"binder": "B1", "binding": "binds"}, {"binder": "B2", "binding": "binds"}, {"binder": "B3", "binding": "binds"}]}, {"biological_target": "IGF-II/IGFBP-3 complex (UniProt P01344)", "test": "Biacore, mAb immobilised on CM5, analyte flowed; grade relative to IGF binding", "values": [{"binder": "B1", "binding": "binds"}, {"binder": "B2", "binding": "binds"}, {"binder": "B3", "binding": "binds"}]}, {"biological_target": "IGF-I/IGFBP-3 complex (UniProt P05019)", "test": "Biacore, mAb immobilised on CM5, analyte flowed; grade relative to IGF binding", "values": [{"binder": "B1", "binding": "binds"}, {"binder": "B2", "binding": "binds"}, {"binder": "B3", "binding": "binds"}]}]}
